Earlier results as cited in patent publication US9150558B2, “Nicotine receptor targeted compounds and compositions” (University of Florida Research Foundation, priority 2011, dated 2015).
For at least one compound, name, drawing or mass did not settle the structure.

The chains behind the UniProt entries cited, without tags or fusion partners. Residues count along the entry.
UniProt Q05941, 23-502: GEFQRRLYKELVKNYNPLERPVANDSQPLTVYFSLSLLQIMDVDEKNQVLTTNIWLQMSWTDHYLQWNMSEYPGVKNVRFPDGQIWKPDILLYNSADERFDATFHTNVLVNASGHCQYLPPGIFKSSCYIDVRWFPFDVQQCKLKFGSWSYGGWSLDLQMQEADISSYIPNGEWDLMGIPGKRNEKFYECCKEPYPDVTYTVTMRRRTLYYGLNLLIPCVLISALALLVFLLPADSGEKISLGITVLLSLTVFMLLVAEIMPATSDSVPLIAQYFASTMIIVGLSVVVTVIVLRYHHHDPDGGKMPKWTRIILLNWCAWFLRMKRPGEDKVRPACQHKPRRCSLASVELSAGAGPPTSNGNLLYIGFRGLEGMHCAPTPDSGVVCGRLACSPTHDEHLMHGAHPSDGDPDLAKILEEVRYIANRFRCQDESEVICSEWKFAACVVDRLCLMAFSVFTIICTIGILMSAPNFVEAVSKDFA

Target: T1, α7 Receptor (alpha7 nAChR) (Rattus norvegicus, UniProt Q05941)
T1 construct: protein concentration of the rat brain membranes contained in the pellet; tissue Pel-Freeze Biologicals; host or cells: whole male Sprague-Dawley rat brain membranes
Conditions: reported in Table 3 of Kem et al., 2004 Mol. Pharmacol. 65, page 62; cited from earlier work

In the case of `COc1ccc(/C=C2\CCCN=C2c2cccnc2)c(OC)c1` [Compound 2, 3-(2,4-dimethoxybenzylidene)-anabaseine, reference compound], the “measured alpha7 selectivity of DMXBA” value is listed as 1.95.
